Experimental data as given in PubChem BioAssay AID2685 (National Center for Advancing Translational Sciences (NCATS), 2010).
The list shows a part of the results. Shown are side measurements of this screen, not its main read-out; they come without a call. The list favours compounds with an active or inconclusive main result. Words in brackets tell the shape of the fitted curve; partial curves, single points and poor fits give uncertain potencies.

Test: qHTS Assay for Lipid Storage Modulators in Drosophila S3 Cells;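 on cell number change: cells counted by Cell Tracker Red CMTPX staining in the red channel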
Settings: BODIPY lipid droplet fluorescence, 18-24 h; for cell number change: measured here: cell count max response, cells fed with added oleic acid
Summary of the method: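 Drosophila S3 cells got compounds at several concentrations plus oleic acid (400 uM solution). Laser-scanning cytometry with 488 nm excitation read lipid droplets at 500-530 nm and cells at 575-640 nm. Percent activity was relative to 20 uM Triacsin C.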

[1] = measured here: cell number channel AC50, cells fed with added oleic acid
[2] = measured here: lipid fluorescence (Fed channel) AC50, cells fed with added oleic acid

Structure (SMILES)	cell number change [%]	AC50 [1]	AC50 [2]
c1ccc(Cn2nnnc2C(c2cccnc2)N2CCN(c3ccccc3)CC2)cc1 (stereo not given)	2.54	0.259 µM [rising, full curve]	29.1 µM [falling, single point]
C/C(=C\C(=O)c1ccc(Cl)cc1)NCc1ccc2c(c1)OCO2	-16.6		0.0231 µM [falling, full curve]
O=S(=O)(CCc1nc2ccccc2o1)c1ccc(Cl)c(Cl)c1	-18.5	0.82 µM [falling, full curve, poor fit]	
O=C(NCC(c1cccnc1)N1CCOCC1)c1cccc(Cl)c1 (stereo not given)	-13.4		
CN1C(=O)S/C(=C/c2cccnc2)C1=O	67.1	20.6 µM [rising, single point]	
COc1ccc(NC(=S)NC2CCCC2)c(OC)c1	32.4	4.61 µM [rising, full curve, poor fit]	
CCOC(=O)N1CCN(Cc2nc3ccc([N+](=O)[O-])cc3c(=O)n2-c2ccc(OC)cc2OC)CC1	21.4		1.03 µM [rising, partial curve]
Cc1nc2sc(C(c3ccc(Br)cc3)N3CC(C)OC(C)C3)c(O)n2n1 (stereo not given)	-196		
CCC1Nc2ncnc(N3CCCCC3)c2N(Cc2ccc(Br)cc2)C1=O (stereo not given)	14.9		29.1 µM [rising, single point]
COc1cc(Cl)c(C)cc1NC(=O)c1ccccc1NC(=O)CN1CCOCC1	38.2	5.8 µM [rising, full curve, poor fit]	
Cc1noc(C)c1C(=O)N(CC(=O)Nc1ccccc1Br)Cc1ccco1	7.36		13 µM [falling, partial curve]
Cc1cc(C)n2nnnc2n1	-42.9	18.4 µM [falling, single point]	
Cc1cc2c(C)nc(Cc3ccccc3)nc2o1		6.51 µM [falling, single point]	
CCc1ccccc1NC(=O)NC1CCCCCCC1	-2.02		0.00461 µM [rising, full curve, poor fit]
CC(=O)Nc1ccccc1OCC(=O)c1cc(C)n(Cc2cccs2)c1C	17.6		1.3 µM [falling, partial curve, poor fit]
CC(O)[C@H]1CNCCN1CCc1cccc(F)c1 (stereo not given in full)	20.3	0.461 µM [rising, full curve, poor fit]	5.8 µM [rising, full curve]
COc1ccc(NC(=O)[C@@H]2CCCN2C(=O)c2cccs2)cc1S(=O)(=O)N1CCCCC1	-22.3		2.31 µM [rising, single point]
CC1(NC(=O)CSc2nnc(-c3c[nH]c4ccccc34)n2C2CC2)CCS(=O)(=O)C1 (stereo not given)	-8.55		5.8 µM [rising, single point]
CCOC(=O)CSc1nnc(NC(=O)c2ccco2)s1	24.5		
COC(=O)c1cc(S(=O)(=O)N2CCN(c3cccc(Cl)c3)CC2)c[nH]1	14.1		0.82 µM [falling, full curve, poor fit]

Structure (SMILES)	cell number change [%]	AC50 [1]	AC50 [2]
CCCCCn1c2nc3ccccc3nc2c2c(=O)n(CC3CCCO3)c(C)nc21 (stereo not given)	12.8		29.1 µM [falling, single point]
Cc1c(NC(=O)C(C)Sc2ncnc3ccccc23)c(=O)n(-c2ccccc2)n1C (stereo not given)	32.5	0.231 µM [rising, full curve]	
CCOC(=O)c1cnn(-c2ncnc3c2oc2ccccc23)c1N	31.8	0.366 µM [rising, full curve, poor fit]	2.31 µM [rising, partial curve]
CC(C)C(c1nnnn1C1CCCCC1)N1CCOCC1 (stereo not given)	-1.82		8.2 µM [falling, partial curve, poor fit]
C=CCOc1ccc(Br)cc1CNCC	14.7		29.1 µM [rising, single point]
Cc1ccc(NC(=S)N(Cc2cccs2)Cc2cc3cc(C)ccc3[nH]c2=O)cc1	-5.14		0.651 µM [rising, full curve]
Cc1ccc(S(=O)(=O)N2CCOCC2)cc1NC(=O)c1cccc(S(=O)(=O)N2CCCC2)c1	32		
Cc1cccc(NC(=S)NNC(=O)c2csc3c2CCC(C)C3)c1 (stereo not given)	9.22		
Cc1cnc(C(=O)OC(C(=O)c2ccccc2)c2ccccc2)cn1 (stereo not given)	-33.2		32.6 µM [falling, single point]
CCOc1ccc(NC(=O)CN2CCN(CC(=O)Nc3ccc(N(C)C)cc3)CC2)cc1		2.91 µM [rising, partial curve]	
COC(=O)c1sc(NC(=O)CSc2nnnn2-c2cccc(OC)c2)nc1C	-15.5	6.51 µM [falling, single point]	
CCOc1ccc(NC(=O)CN2C(=O)NC(C)(c3ccc(OC(F)F)cc3)C2=O)cc1 (stereo not given)	-5.86		0.58 µM [falling, single point]
CN(C)/C=N/C(=S)Nc1ccc(Cl)c(Cl)c1	32.7	9.2 µM [rising, partial curve]	
CSc1ccccc1OCc1cc(C(=O)NC(C)CCn2cccn2)no1 (stereo not given)	7.8		29.1 µM [rising, single point]
Clc1ccc2c(N/N=C/c3cccc(Br)c3)ccnc2c1	-93.3	29.1 µM [falling, single point]	
O=c1[nH]c2ccc(NS(=O)(=O)c3ccc(F)c(Cl)c3)cc2[nH]1	15.3		11.6 µM [falling, single point]
Cc1cccc(NC(=O)C23CCC(C)(/C(=N/O)C2)C3(C)C)c1 (stereo not given)	2.76	0.116 µM [falling, full curve, poor fit]	6.51 µM [falling, single point]
O=C(COc1nc2ccccc2nc1N1CCOCC1)Nc1ccc(S(=O)(=O)N2CCCC2)cc1	-46.6	14.6 µM [falling, partial curve]	
COc1ccccc1N1CCN(Cc2cc(=O)c(OCC#N)co2)CC1	6.8		29.1 µM [rising, single point]
CCOC(=O)C1(Cc2cccc(OC)c2)CCN(Cc2ccc(OC)c(OC)c2)CC1	-0.745	0.731 µM [falling, full curve]	0.58 µM [falling, full curve]

Structure (SMILES)	cell number change [%]	AC50 [1]	AC50 [2]
COc1ccc(C[C@H]2CN3C(=NC[C@@H]3Cc3ccc(O)cc3)N2C[C@H](C)NC(=O)CCC2CCCCC2)cc1	1.11		25.9 µM [rising, single point]
CCOCCCn1c(=NC(=O)c2ccc(OC)c(OC)c2)c(C#N)cc2c(=O)n3cccc(C)c3nc21	22.6		1.64 µM [rising, partial curve]
c1ccc2sc(SN3CCOCC3)nc2c1	2.21	5.17 µM [falling, single point]	
O=C(Nc1ccc(-c2nnc3n2CCCCC3)cc1)c1ccco1	28.9		29.1 µM [rising, single point]
CC1CN(S(=O)(=O)c2ccc(-c3nc4ccccc4s3)cc2)CC(C)O1 (stereo not given)		0.58 µM [rising, partial curve]	
COCCn1c(C(=O)N2CCCC2)cc2c1C[C@H]1CN(C(=O)c3ccccc3)[C@@](Cc3ccc(F)cc3)(C(=O)OC)[C@@H]21	-38.1	20.6 µM [falling, single point]	16.4 µM [falling, partial curve]
Cc1cccc(NC(=O)CN2C(=O)S/C(=C\C(=O)Nc3ccc(Cl)cc3)C2=O)c1	-24.9	3.66 µM [falling, single point]	
CCCCn1c(SCC(=O)NC2CCS(=O)(=O)C2)nc2ccccc2c1=O (stereo not given)	-2.83		0.00461 µM [falling, full curve, poor fit]
CCOCCCNC(=O)C(c1ccc(OC)cc1)N(Cc1cccs1)C(=O)c1ccccn1 (stereo not given)			29.1 µM [falling, partial curve]
Cc1ccc(C2=NN(S(=O)(=O)c3ccccc3)C(c3ccccc3O)C2)cc1 (stereo not given)	-47.5	20.6 µM [falling, single point]	23.1 µM [falling, partial curve]
Cc1nn(CC(=O)N2CCC(C)CC2)c(=O)c2cccn12			0.731 µM [falling, single point]
CCN(CC(=O)NCc1ccc(Cl)cc1)C(=O)c1cccc(S(=O)(=O)Nc2ccc(OC)cc2)c1		6.51 µM [falling, single point]	
O=C(Nc1cccc(NC(=O)c2ccccc2[N+](=O)[O-])c1)c1ccccc1Cl	-7.43		
CC(NC(=O)c1ccco1)C1CCCO1 (stereo not given)	7.62		1.3 µM [falling, full curve]
Cc1c(C(=O)OCC(C)(C)CN(C)C)oc2ccccc12		1.16 µM [falling, partial curve]	1.84 µM [falling, partial curve]
COC(=O)c1ccc(C2C3=C(Nc4nnnn42)c2ccccc2OC3)cc1 (stereo not given)	14.9	2.59 µM [falling, single point]	
Cc1ccc2nc(NC(=O)CCNS(=O)(=O)c3ccc(Br)s3)sc2c1	-50.8	32.6 µM [falling, single point]	29.1 µM [falling, single point]
Cc1ccc(N2CC(C(=O)N3CCC(C(=O)NC(C)(C)C)CC3)CC2=O)cc1 (stereo not given)	-4.27		23.1 µM [falling, single point]
CC(NC(=O)c1cccc(S(=O)(=O)N2CCc3ccccc32)c1)c1ccco1 (stereo not given)	-7.31		
COc1cc(/C=N/NC(=O)c2cccs2)ccc1O	17		29.1 µM [rising, single point]

Given as comma-separated lines: entries from further up.
Structure (SMILES),cell number change [%],AC50 [1],AC50 [2]
CCCCn1c(SCC(=O)NC2CCS(=O)(=O)C2)nc2ccccc2c1=O (stereo not given),-2.83,,"0.00461 µM [falling, full curve, poor fit]"
CCOCCCNC(=O)C(c1ccc(OC)cc1)N(Cc1cccs1)C(=O)c1ccccn1 (stereo not given),,,"29.1 µM [falling, partial curve]"
Cc1ccc(C2=NN(S(=O)(=O)c3ccccc3)C(c3ccccc3O)C2)cc1 (stereo not given),-47.5,"20.6 µM [falling, single point]","23.1 µM [falling, partial curve]"
Cc1nn(CC(=O)N2CCC(C)CC2)c(=O)c2cccn12,,,"0.731 µM [falling, single point]"
CCN(CC(=O)NCc1ccc(Cl)cc1)C(=O)c1cccc(S(=O)(=O)Nc2ccc(OC)cc2)c1,,"6.51 µM [falling, single point]",
